# Test results published in paper PMC5343482.
# Sequences of proteins named here, by UniProt entry; tags and fusion partners are left off.
# UniProt Q92922: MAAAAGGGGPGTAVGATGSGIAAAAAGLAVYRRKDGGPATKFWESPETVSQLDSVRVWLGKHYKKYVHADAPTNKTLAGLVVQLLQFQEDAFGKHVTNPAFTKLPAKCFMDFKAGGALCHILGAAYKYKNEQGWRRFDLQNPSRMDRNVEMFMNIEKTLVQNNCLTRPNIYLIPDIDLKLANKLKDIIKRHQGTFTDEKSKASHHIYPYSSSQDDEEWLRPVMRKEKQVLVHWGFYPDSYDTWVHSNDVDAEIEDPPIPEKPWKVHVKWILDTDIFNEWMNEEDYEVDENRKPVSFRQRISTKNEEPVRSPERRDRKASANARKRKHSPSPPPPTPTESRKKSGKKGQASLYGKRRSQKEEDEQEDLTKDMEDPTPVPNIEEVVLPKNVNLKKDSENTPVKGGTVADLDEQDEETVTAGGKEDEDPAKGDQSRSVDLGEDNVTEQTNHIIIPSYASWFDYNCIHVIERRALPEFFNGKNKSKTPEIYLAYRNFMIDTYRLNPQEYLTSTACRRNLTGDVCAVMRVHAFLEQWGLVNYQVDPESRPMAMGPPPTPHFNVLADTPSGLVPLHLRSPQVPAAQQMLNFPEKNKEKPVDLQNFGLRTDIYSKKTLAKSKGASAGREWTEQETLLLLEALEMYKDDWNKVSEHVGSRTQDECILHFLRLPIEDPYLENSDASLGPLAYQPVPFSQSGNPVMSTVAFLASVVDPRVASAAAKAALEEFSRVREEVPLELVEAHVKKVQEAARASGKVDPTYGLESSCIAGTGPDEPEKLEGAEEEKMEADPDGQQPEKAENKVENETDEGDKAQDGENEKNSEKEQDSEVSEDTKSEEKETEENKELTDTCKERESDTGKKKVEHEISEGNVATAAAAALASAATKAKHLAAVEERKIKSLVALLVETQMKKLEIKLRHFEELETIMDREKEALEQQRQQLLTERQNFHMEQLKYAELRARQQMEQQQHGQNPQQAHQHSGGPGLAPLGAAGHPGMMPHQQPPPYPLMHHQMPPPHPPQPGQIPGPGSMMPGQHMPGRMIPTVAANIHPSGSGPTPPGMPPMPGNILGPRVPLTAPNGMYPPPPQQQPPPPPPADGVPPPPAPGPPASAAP
# UniProt Q09472: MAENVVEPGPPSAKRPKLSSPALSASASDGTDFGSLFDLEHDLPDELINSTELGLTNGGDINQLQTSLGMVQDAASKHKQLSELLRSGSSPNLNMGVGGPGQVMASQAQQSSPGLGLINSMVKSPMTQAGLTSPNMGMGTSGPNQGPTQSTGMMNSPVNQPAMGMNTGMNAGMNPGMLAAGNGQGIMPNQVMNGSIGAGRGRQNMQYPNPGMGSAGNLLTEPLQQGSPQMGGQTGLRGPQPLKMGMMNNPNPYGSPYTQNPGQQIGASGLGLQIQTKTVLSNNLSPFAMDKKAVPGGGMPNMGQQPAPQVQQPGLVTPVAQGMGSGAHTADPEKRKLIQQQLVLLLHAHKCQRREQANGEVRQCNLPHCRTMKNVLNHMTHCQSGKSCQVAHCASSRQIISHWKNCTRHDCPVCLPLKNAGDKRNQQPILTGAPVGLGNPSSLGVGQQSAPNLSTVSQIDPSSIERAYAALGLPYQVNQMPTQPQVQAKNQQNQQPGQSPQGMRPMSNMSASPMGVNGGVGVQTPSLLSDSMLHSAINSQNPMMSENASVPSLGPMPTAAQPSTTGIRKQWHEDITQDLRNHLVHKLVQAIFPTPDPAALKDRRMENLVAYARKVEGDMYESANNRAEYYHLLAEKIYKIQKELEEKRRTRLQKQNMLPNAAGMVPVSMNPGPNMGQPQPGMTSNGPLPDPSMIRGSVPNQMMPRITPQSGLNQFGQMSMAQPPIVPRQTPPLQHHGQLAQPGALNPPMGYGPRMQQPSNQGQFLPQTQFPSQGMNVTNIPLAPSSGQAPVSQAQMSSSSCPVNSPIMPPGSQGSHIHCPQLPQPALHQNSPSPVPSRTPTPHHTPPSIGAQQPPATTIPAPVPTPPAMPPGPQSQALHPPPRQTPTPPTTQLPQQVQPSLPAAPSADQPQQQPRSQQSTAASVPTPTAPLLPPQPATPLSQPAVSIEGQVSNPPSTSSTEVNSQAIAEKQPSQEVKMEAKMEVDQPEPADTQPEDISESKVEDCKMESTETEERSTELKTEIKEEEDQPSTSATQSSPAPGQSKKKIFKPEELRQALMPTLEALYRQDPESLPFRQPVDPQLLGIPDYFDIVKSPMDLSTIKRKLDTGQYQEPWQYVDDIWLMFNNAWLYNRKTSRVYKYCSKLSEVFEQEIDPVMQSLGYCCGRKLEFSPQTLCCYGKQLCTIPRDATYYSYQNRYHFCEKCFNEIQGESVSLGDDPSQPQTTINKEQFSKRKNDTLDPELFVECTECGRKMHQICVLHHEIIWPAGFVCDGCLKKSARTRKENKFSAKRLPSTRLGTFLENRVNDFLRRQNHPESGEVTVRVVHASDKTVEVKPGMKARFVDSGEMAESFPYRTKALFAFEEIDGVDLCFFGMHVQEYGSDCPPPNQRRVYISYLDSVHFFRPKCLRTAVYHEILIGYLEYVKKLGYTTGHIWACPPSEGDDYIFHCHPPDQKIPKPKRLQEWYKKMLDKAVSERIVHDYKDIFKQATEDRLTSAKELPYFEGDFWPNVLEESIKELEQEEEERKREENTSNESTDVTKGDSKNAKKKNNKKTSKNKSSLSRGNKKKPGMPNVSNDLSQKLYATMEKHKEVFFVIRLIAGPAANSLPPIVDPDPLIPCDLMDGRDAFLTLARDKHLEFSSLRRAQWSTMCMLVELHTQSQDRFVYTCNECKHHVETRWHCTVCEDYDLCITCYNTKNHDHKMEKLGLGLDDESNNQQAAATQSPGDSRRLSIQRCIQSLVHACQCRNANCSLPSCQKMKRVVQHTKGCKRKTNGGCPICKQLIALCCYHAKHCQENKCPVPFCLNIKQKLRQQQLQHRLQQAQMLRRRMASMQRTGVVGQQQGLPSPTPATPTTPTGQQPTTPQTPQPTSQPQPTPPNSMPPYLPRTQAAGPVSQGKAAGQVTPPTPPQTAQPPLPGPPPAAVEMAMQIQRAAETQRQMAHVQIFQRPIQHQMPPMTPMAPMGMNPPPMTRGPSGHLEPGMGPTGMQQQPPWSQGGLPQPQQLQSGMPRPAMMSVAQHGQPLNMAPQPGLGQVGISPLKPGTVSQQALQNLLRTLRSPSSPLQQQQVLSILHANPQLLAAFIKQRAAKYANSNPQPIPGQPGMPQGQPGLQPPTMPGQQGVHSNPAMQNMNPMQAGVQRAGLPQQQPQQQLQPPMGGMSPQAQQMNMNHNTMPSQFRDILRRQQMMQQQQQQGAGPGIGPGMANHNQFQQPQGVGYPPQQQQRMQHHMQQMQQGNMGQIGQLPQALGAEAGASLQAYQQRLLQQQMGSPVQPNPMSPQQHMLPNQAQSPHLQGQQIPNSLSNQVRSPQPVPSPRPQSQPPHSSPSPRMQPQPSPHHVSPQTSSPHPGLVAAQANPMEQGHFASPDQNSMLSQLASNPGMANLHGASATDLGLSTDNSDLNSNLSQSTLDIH
# These are yes or no findings as the source states them, for the method shown. In cells and extracts the contact can be indirect. Some entries that bind do so weakly or less than the wild type.
# Molecular target: SMARCC1 (human), core SWI/SNF subunit (human (endogenous in G401)) (UniProt Q92922)
# Experiment: co-IP; anti-SMARCC1 on Dynabeads, G401 rhabdoid cells with or without doxycycline-induced SMARCB1 re-expression (legend: nuclear extracts), 4 °C overnight, immunoblot for P300; IgG as control
substance,measurement,value
p300 histone acetyltransferase (human) (from UniProt Q09472 1-2414),binding,binds
